# Reference: the supplement of paper PMC12067093, “Discovery and optimisation of a covalent ligand for TRIM25 and its application to targeted protein ubiquitination” (Chemical Science, 2025)
# Amino acid sequences for entries named in this document (tags omitted). A change or cut given only in a name is not applied to a line headed by its entry.
# UniProt Q16822, whole entry, looked up: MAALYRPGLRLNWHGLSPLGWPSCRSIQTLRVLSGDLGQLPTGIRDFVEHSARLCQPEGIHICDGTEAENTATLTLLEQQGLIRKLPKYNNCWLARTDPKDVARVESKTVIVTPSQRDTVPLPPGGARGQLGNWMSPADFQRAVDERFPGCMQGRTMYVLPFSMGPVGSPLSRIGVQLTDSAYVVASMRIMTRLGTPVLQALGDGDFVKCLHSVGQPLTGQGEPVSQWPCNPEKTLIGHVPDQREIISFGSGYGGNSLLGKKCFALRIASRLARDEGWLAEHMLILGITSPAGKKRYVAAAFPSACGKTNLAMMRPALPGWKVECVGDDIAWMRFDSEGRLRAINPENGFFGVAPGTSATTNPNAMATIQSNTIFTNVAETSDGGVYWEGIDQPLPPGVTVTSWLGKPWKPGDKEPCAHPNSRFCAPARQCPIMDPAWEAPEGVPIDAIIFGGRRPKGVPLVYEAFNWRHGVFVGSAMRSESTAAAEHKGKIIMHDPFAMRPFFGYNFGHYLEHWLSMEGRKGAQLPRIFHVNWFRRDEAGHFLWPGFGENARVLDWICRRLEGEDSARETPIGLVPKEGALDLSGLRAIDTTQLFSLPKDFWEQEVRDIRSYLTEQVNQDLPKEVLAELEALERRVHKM
# UniProt Q15084: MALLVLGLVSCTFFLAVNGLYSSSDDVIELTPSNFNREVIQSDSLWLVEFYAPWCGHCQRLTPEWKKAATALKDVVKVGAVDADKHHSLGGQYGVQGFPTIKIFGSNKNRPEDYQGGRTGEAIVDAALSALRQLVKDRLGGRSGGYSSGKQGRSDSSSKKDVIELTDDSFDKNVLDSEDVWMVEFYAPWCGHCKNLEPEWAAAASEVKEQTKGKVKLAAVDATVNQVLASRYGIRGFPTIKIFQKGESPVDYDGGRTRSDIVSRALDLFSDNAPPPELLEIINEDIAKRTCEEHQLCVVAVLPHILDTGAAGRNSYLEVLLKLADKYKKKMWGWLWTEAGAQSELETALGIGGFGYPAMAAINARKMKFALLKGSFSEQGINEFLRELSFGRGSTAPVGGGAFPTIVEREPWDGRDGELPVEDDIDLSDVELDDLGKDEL
# UniProt Q9BVG4: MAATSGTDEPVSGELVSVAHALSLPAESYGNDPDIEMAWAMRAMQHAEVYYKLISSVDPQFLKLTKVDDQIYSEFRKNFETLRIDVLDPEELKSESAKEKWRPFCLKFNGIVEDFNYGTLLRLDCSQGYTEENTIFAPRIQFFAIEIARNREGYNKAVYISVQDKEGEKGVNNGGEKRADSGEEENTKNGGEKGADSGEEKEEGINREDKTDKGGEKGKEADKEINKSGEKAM
# UniProt Q29RF7: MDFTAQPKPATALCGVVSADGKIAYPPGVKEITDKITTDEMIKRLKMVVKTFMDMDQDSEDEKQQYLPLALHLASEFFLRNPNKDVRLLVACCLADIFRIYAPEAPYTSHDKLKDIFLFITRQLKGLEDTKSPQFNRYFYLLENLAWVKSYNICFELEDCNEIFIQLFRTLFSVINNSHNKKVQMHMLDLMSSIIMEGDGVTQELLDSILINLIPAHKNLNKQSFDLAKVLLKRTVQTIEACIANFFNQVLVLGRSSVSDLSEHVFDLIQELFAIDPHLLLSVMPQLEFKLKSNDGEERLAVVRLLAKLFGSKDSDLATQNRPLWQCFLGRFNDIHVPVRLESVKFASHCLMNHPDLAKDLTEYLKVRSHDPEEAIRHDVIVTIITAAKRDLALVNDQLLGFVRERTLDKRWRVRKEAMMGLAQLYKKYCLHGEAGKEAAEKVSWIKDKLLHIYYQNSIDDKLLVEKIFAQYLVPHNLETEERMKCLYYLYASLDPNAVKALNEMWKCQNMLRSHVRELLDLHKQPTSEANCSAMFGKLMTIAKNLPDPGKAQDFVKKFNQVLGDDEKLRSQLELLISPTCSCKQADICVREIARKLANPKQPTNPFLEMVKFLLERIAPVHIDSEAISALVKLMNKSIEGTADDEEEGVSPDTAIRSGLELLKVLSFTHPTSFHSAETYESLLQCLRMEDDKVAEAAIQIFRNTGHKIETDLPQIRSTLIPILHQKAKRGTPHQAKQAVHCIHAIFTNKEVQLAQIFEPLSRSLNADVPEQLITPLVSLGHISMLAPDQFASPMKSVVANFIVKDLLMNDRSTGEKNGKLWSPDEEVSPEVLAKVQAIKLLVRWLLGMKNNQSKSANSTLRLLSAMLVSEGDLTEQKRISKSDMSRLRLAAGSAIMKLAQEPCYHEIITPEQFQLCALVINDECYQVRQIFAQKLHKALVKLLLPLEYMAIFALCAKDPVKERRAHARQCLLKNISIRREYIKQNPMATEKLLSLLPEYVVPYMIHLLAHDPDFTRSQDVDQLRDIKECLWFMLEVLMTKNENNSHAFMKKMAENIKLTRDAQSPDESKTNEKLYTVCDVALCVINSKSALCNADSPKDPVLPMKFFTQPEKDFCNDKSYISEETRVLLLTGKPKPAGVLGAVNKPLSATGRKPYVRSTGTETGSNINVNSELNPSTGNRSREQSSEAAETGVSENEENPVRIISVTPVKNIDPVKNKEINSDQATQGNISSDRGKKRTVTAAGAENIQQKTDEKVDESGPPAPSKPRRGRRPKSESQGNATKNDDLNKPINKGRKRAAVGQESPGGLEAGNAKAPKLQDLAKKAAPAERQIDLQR
# UniProt Q5JVF3: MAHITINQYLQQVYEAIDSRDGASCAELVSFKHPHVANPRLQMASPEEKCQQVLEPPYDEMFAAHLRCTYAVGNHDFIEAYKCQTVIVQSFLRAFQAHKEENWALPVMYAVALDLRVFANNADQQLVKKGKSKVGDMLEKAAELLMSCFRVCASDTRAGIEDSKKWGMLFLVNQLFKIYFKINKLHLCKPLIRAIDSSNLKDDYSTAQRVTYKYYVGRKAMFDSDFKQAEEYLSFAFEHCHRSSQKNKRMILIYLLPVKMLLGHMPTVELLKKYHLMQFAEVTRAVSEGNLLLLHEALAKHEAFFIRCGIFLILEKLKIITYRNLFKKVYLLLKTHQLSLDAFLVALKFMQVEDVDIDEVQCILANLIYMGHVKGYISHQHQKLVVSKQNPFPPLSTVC
# UniProt Q15154: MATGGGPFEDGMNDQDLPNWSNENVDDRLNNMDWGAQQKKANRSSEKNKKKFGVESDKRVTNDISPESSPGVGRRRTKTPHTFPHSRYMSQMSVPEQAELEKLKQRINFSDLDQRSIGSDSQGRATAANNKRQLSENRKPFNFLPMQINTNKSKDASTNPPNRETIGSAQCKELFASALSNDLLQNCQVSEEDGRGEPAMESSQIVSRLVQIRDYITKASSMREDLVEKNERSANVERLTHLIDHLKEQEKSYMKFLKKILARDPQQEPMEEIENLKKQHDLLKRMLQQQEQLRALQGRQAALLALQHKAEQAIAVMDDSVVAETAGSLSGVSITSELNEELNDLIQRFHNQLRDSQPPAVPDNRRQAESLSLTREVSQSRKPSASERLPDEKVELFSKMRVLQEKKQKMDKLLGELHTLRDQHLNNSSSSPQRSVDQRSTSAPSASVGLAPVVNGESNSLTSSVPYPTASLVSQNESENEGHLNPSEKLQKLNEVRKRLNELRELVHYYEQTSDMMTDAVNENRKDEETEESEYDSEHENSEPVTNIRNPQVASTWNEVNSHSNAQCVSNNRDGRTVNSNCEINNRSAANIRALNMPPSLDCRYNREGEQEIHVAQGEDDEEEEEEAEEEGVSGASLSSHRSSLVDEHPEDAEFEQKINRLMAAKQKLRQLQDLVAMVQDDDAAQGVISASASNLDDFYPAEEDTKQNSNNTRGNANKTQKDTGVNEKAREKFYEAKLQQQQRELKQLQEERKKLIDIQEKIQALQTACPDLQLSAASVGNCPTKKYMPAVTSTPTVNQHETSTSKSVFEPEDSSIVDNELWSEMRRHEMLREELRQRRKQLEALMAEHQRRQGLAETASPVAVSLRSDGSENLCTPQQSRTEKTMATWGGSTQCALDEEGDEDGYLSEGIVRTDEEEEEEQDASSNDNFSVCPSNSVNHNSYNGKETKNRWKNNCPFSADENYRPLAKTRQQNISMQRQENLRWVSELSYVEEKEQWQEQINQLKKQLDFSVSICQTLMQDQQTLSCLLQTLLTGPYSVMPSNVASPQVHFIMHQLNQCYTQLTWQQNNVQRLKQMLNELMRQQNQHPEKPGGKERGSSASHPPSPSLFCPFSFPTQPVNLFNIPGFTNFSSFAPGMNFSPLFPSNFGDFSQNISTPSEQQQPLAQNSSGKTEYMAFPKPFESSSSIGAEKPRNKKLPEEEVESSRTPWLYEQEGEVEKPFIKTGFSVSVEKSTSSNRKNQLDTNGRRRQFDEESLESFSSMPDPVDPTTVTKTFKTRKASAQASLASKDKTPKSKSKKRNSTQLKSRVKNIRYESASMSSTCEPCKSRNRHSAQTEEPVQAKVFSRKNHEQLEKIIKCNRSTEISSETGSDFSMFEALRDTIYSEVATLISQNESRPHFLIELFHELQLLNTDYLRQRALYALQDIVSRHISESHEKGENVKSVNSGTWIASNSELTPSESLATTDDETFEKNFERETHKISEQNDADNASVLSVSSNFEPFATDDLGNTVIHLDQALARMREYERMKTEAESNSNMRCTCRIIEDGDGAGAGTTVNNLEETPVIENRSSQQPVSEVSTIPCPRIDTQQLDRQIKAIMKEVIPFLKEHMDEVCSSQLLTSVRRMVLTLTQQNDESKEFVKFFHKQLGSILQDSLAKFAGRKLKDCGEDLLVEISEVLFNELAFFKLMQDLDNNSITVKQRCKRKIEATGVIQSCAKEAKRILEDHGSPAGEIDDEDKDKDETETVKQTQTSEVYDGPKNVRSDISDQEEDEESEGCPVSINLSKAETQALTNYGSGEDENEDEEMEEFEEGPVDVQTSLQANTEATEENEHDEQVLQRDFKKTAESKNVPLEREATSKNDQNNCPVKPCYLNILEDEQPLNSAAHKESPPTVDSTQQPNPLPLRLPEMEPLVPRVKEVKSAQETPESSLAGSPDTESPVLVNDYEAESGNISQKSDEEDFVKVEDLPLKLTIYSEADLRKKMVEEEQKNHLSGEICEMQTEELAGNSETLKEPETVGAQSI
# UniProt Q8NCN5: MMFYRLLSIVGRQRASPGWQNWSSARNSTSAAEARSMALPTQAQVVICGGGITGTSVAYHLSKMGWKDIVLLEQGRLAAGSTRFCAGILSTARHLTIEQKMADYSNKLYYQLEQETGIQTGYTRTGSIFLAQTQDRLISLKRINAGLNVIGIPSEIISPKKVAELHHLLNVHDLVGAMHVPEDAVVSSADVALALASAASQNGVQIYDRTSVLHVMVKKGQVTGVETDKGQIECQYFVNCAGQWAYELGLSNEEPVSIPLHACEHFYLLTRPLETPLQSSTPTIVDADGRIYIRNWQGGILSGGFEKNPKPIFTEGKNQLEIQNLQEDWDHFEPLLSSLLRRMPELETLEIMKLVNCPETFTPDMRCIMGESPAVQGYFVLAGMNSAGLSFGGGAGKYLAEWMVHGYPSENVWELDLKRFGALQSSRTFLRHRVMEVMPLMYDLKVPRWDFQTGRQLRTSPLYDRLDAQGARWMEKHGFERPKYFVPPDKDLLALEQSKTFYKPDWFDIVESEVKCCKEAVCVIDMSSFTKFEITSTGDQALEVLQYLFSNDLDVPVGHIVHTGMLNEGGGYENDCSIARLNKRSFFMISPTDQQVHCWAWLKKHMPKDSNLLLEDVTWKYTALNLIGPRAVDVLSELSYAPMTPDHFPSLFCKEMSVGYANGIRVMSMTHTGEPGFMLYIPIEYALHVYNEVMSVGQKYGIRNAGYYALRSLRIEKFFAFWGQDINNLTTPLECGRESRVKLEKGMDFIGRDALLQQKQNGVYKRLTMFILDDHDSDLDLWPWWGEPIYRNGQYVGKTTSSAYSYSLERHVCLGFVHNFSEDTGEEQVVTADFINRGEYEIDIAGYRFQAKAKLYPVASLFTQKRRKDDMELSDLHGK
# UniProt Q15118, whole entry, looked up: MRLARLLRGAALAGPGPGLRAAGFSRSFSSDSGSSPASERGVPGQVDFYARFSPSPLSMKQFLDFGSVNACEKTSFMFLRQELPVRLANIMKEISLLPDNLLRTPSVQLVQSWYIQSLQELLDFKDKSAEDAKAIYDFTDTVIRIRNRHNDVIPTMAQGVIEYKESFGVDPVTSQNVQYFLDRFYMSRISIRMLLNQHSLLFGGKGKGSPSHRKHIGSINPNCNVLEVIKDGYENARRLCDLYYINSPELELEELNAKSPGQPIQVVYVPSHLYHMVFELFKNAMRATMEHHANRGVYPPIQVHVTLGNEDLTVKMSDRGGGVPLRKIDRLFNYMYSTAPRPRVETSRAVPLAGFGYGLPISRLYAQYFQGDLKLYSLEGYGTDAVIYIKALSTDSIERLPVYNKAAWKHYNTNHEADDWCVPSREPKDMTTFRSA
# UniProt Q9BUH6, whole entry, looked up: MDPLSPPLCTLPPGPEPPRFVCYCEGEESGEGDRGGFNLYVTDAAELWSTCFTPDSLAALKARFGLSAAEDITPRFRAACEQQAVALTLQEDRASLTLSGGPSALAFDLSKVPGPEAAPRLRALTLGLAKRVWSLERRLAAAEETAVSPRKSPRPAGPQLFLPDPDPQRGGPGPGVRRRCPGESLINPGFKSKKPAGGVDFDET
# Some of the results follow.
# Compound: CC1Cc2ccccc2N1C(=O)C1CCCN(C1)C(=O)CCl (mixture of isomers) [TRIM25 ligand 11 (diastereomer mixture)]
# Assay: probe-labelled cysteine peptide fold change vs DMSO (competition) (log2 fold change); higher = less target engagement (more negative = stronger competition)
# Conditions: THP-1, incubation time: 4 h
# 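Note: competitive chemoproteomic profiling in live THP-1 cells with an iodoacetamide desthiobiotin (IA-DTB) probe, comparing probe-labelled peptide intensities in compound-treated cells against DMSO-treated controls.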
Target,probe-labelled cysteine peptide fold change (10 µM),probe-labelled cysteine peptide fold change (50 µM)
PCK2_Q16822_559_VLDWICR (UniProt Q16822),-0.0267,0.0547
PDLIM1_O00151_45_AALANLCIGDVITAIDGENTSNMTHLEAQNR (UniProt O00151),-0.107,-0.207
PCYT1A_P49585_5_MDAQCSAK (UniProt P49585),-0.0266,-0.206
PDIA6_Q15084_190_NVLDSEDVWMVEFYAPWCGHCK (UniProt Q15084),-0.195,-0.516
PDCD11_Q14690_1218_TLLCLSLTGPHK (UniProt Q14690),-0.113,-0.108
PAXIP1_Q6ZW49_1029_QNSSLSEIILISCENDLHLCR (UniProt Q6ZW49),0.0632,0.0876
PARS2_Q7L3T8_68_SDDLTCK (UniProt Q7L3T8),-0.167,-0.0773
PBDC1_Q9BVG4_125_LDCSQGYTEENTIFAPR (UniProt Q9BVG4),0.123,0.233
PDLIM1_O00151_286_HPECYVCTDCGTNLK (UniProt O00151),0.0753,0.0963
PDS5A_Q29RF7_430_YCLHGEAGK (UniProt Q29RF7),0.0368,0.0881
PCNT_O95613_1119_DQVLSLSHEIEECRSELEVLQQR (UniProt O95613),0.183,-0.176
PARP2_Q9UGN5_288_KIEDCIR (UniProt Q9UGN5),-0.0921,0.0738
PDLIM7_Q9NR12_341_YAPSCAK (UniProt Q9NR12),0.0325,-0.0479
PDLIM5_Q96HC4_479_FFAPECGR (UniProt Q96HC4),0.0431,0.0153
PDHB_P11177_161+169_GPNGASAGVAAQHSQCFAAWYGHCPGLK (UniProt P11177),0.0122,-0.0132
PCBP1_Q15365_109_LVVPATQCGSLIGK (UniProt Q15365),-0.0226,0.00485
PCID2_Q5JVF3_83_CQTVIVQSFLR (UniProt Q5JVF3),0.0416,0.0246
PCTP_Q9UKL6_93_ELYEQECNGETVVYWEVK (UniProt Q9UKL6),-0.0461,-0.196
PARP4_Q9UKK3_12_VMGIFANCIFCLK (UniProt Q9UKK3),0.0309,0.242
PCM1_Q15154_1872_PCYLNILEDEQPLNSAAHK (UniProt Q15154),0.0621,-0.173
PDIA6_Q15084_291+297_TCEEHQLCVVAVLPHILDTGAAGR (UniProt Q15084),0.0199,0.0826

Target,probe-labelled cysteine peptide fold change (10 µM),probe-labelled cysteine peptide fold change (50 µM)
PDLIM1_O00151_289_HPECYVCTDCGTNLK (UniProt O00151),0.0913,0.0265
PDCD2_Q16342_281_DIPDCPCGAK (UniProt Q16342),-0.0281,-0.0259
PDPR_Q8NCN5_598_SFFMISPTDQQVHCWAWLK (UniProt Q8NCN5),-0.233,0.132
PCYT2_Q99447_306_VDLVCHGK (UniProt Q99447),0.116,0.229
PDK1_Q15118_223_HIGSINPNCNVLEVIK (UniProt Q15118),0.283,0.144
PATL1_Q86TB9_589_GKLPGQERPSDDHFVQIMCIR (UniProt Q86TB9),-0.0345,-0.16
PDCD2L_Q9BRP1_100_SQCLQVPER (UniProt Q9BRP1),0.0827,-0.012
PCBP3_P57721_86_INISEGNCPER (UniProt P57721),0.0565,-0.0133
PCBP2_Q15366_301_GYWGLDASAQTTSHELTIPNDLIGCIIGR (UniProt Q15366),-0.0833,-0.0197
PDIA6_Q15084_291+297_RTCEEHQLCVVAVLPHILDTGAAGR (UniProt Q15084),-0.266,-0.0759
PCID2_Q5JVF3_148_AAELLMSCFR (UniProt Q5JVF3),0.131,0.228
PDS5A_Q29RF7_1079+1084_LYTVCDVALCVINSK (UniProt Q29RF7),-0.125,0.0661
PDK1_Q15118_240_RLCDLYYINSPELELEELNAK (UniProt Q15118),0.246,0.316
PDE12_Q6L8Q7_180_YIMAGFPVCPK (UniProt Q6L8Q7),-0.131,-0.214
PDIA4_P13667_94_DTVLLEFYAPWCGHCK (UniProt P13667),0.0567,-0.17
PDCD11_Q14690_361_LSCQNLGAVLDDVPVQGFFK (UniProt Q14690),-0.0405,-0.0807
PDIA5_Q14554_305_EHSSVLVMFHAPWCGHCK (UniProt Q14554),0.118,-0.222
PCID2_Q5JVF3_68_CTYAVGNHDFIEAYK (UniProt Q5JVF3),0.186,0.315
PDCD6IP_Q8WUM4_40_FIQQTYPSGGEEQAQYCR (UniProt Q8WUM4),0.0813,-0.253
PBK_Q96KB5_70_KINPICNDHYR (UniProt Q96KB5),-0.037,-0.0406
PDIA6_Q15084_291_RTCEEHQLCVVAVLPHILDTGAAGR (UniProt Q15084),-0.0137,0.146

Target,probe-labelled cysteine peptide fold change (10 µM),probe-labelled cysteine peptide fold change (50 µM)
PCM1_Q15154_1779_SDISDQEEDEESEGCPVSINLSK (UniProt Q15154),-0.217,-0.0365
PCM1_Q15154_1717_IEATGVIQSCAK (UniProt Q15154),-0.0458,-0.293
PDLIM1_O00151_263_CGTGIVGVFVK (UniProt O00151),-0.15,-0.156
PCIF1_Q9H4Z3_29_EEASLLSHSPGTSNQSQPCSPK (UniProt Q9H4Z3),-0.0152,-0.357
PCF11_O94913_1518_NELQEPCDSPK (UniProt O94913),-0.0353,-0.154
PARP1_P09874_429_ASLCISTKK (UniProt P09874),-0.437,-0.28
PBRM1_Q86U86_1233_CAVLSFK (UniProt Q86U86),0.0824,-0.00691
PCNT_O95613_70_EDSALCGGGDICK (UniProt O95613),-0.237,-0.2
PDCD11_Q14690_535_LPVITCYADAK (UniProt Q14690),0.247,0.297
PCBP1_Q15365_201_CSDAAGYPHATHDLEGPPLDAYSIQGQHTISPLDLAK (UniProt Q15365),-0.108,-0.282
PDIA5_Q14554_456_IACAAVDCVK (UniProt Q14554),-0.0864,-0.127
PDIA3_P30101_244_FIQENIFGICPHMTEDNK (UniProt P30101),-0.024,-0.2
PDIA6_Q15084_55_EVIQSDSLWLVEFYAPWCGHCQR (UniProt Q15084),-0.19,-0.166
PBRM1_Q86U86_1244+1257_DFLSCRPTEIPENDILLCESR (UniProt Q86U86),0.0435,0.00111
PCBP2_Q15366-2_302_GYWAGLDASAQTTSHELTIPNDLIGCIIGR (UniProt Q15366),-0.105,-0.0493
PCK2_Q16822_92_YNNCWLAR (UniProt Q16822),-0.0883,-0.0335
PCCB_P05166_291_ECHDPSDRLVPELDTIVPLESTK (UniProt P05166),-0.303,-0.127
PCYOX1_Q9UHG3_445_CPSIILHDR (UniProt Q9UHG3),0.00844,0.141
PDIA5_Q14554_81_GQGTICWVDCGDAESR (UniProt Q14554),-0.0225,-0.0769
PDS5A_Q29RF7_1084_LYTVCDVALCVINSK (UniProt Q29RF7),-0.0741,-0.0435
PDCD11_Q14690_557_DYGCIVK (UniProt Q14690),0.00725,0.196

Target,probe-labelled cysteine peptide fold change (10 µM),probe-labelled cysteine peptide fold change (50 µM)
PDS5A_Q29RF7_589_QADICVR (UniProt Q29RF7),-0.0431,0.109
PCM1_Q15154_1867_NDQNNCPVK (UniProt Q15154),-0.0454,-0.0479
PCK2_Q16822_151_AVDERFPGCMQGR (UniProt Q16822),-0.322,-0.143
PDPR_Q8NCN5_653_AVDVLSELSYAPMTPDHFPSLFCK (UniProt Q8NCN5),0.0564,-0.00485
PCM1_Q15154_1616_EHMDEVCSSQLLTSVRR (UniProt Q15154),-0.367,-0.438
PAXBP1_Q9Y5B6_457_GYVQDLLECFSEK (UniProt Q9Y5B6),0.0666,0.156
PDS5B_Q9NTI5_1069_LYTVCDVAMNIIMSK (UniProt Q9NTI5),-0.193,-0.0757
PCM1_Q15154_783_IQALQTACPDLQLSAASVGNCPTK (UniProt Q15154),0.0485,-0.142
PDPK1_O15530_181_IGSFDETCTR (UniProt O15530),0.0617,0.181
PDCD11_Q14690_694_VLCLSQSEGR (UniProt Q14690),-0.0798,0.156
PDS5A_Q29RF7_686_VLSFTHPTSFHSAETYESLLQCLR (UniProt Q29RF7),-0.152,-0.172
PDS5A_Q29RF7_532_QPTSEANCSAMFGK (UniProt Q29RF7),-0.0654,-0.298
PDIA3_P30101_60_ISDTGSAGLMLVEFFAPWCGHCK (UniProt P30101),-0.0971,-0.283
PDS5A_Q29RF7_486_CLYYLYASLDPNAVK (UniProt Q29RF7),0.0833,0.0765
PCGF5_Q86SE9_53_TCIVQHFEDSNDCPR (UniProt Q86SE9),0.408,-0.0388
PDLIM7_Q9NR12_370_MTWHVHCFTCAACK (UniProt Q9NR12),-0.0568,0.119
PDXDC1_Q6P996_491_LPVLCCTLQLR (UniProt Q6P996),0.0841,0.128
PAXIP1_Q6ZW49_136_CTHLIVPEPK (UniProt Q6ZW49),0.233,0.288
PDIA3_P30101_85+92_VDCTANTNTCNK (UniProt P30101),0.114,0.0316
PAXX_Q9BUH6_9_MDPLSPPLCTLPPGPEPPR (UniProt Q9BUH6),-0.538,0.177
PDLIM7_Q9NR12_308+311_YLVALGHAYHPEEFVCSQCGK (UniProt Q9NR12),0.00692,0.0692
